Measured values taken from US7585834B2 (The Board of Trustees of the Leland Stanford Junior …, priority 2001, dated 2009).

Experiment: general procedure: Fmoc solid-phase peptide synthesis; HATU
Details: conjugation step, TFA salt

Substance: Biotin-aminocaproic acid-r5-Cys(acyclovir)-CONH2
- conjugation yield: 36%
